Taken from: PubChem BioAssay AID1224828 (NIAID, 2016)
The whole screen tested about 17,000 reagents; this is a part drawn at random. 762 of them (4.5%) were called active. 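Active calls include both raised and lowered p65 entry, mostly lowered; wells with fewer than 50 cells lack a z-score.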 Raw values are not corrected between plates.

Purpose: 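Regulators linking TLR4 signalling to p65 nuclear translocation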 (primary screen)
Cell system: mouse RAW264.7 G9 macrophage reporter cells (GFP-p65, Tnf promoter-mCherry)
Reagents: siRNA pool against mouse genes, 100 nM
Duration: 2 days siRNA transfection, then 40 min LPS before fixation
Treatment: LPS (Salmonella minnesota R595) at 10 ng/ml
Measured: 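Microscopy ratio of nuclear to perinuclear-ring GFP-p65 signal, scaled to the plate median; gene score is the average of two replicate robust z-scores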
Reading the numbers: p65 translocation robust z-score: higher = more nuclear NF-kappaB p65 after LPS than the plate median; nuclear/cytoplasmic p65 ratio: higher = more nuclear NF-kappaB p65
Call rule: 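Called active when z exceeds 3.3 or falls under -1.56 (median of Tlr4 controls), giving activity score of at least 50; no calls for control wells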
Meaning of the calls: active = hit (p65 shift raised or lowered); inactive = no clear change

| target | p65 translocation robust z-score | nuclear/cytoplasmic p65 ratio, rep 1 | nuclear/cytoplasmic p65 ratio, rep 2 | low cell count flag | Outcome |
| --- | --- | --- | --- | --- | --- |
| D430041D05Rik (RIKEN cDNA D430041D05 gene) | 0.09 | 1.44 | 1.41 | enough cells to score | inactive |
| Mitf (melanogenesis associated transcription factor) | 0.25 | 1.38 | 1.46 | enough cells to score | inactive |
| Clspn (claspin) | -0.6 | 1.36 | 1.33 | enough cells to score | inactive |
| Ercc1 | -0.39 | 1.4 | 1.33 | enough cells to score | inactive |
| Mapk15 (mitogen-activated protein kinase 15) | 1.23 | 1.58 | 1.72 | enough cells to score | inactive |
| Tceal8 (transcription elongation factor A (SII)-like 8) | – | 1.4 | 1.54 | fewer than 50 cells per well; well left out of scoring | inactive |
| Or9e1 (olfactory receptor family 9 subfamily E member 1) | – | 1.48 | 1.37 | fewer than 50 cells per well; well left out of scoring | inactive |
| Or10j3b (olfactory receptor family 10 subfamily J member 3B) | -1.26 | 1.38 | 1.29 | enough cells to score | inactive |
| Leng9 (leukocyte receptor cluster (LRC) member 9) | -2.18 | 1.25 | 1.13 | enough cells to score | active |
| Trim12a (tripartite motif-containing 12A) | -1.77 | 1.15 | 0.99 | enough cells to score | active |
| Crls1 (cardiolipin synthase 1) | 0.92 | 1.77 | 1.48 | enough cells to score | inactive |
| Coa4 (cytochrome c oxidase assembly factor 4) | -0.46 | 1.28 | 1.42 | enough cells to score | inactive |
| Dscaml1 (DS cell adhesion molecule like 1) | – | 1.09 | 1.08 | fewer than 50 cells per well; well left out of scoring | inactive |
| Hsd3b6 | – | 1.6 | 1.73 | fewer than 50 cells per well; well left out of scoring | inactive |
| Slc30a5 | – | 2.83 | 1.26 | fewer than 50 cells per well; well left out of scoring | inactive |
| Vps26a (VPS26 retromer complex component A) | 1.29 | 1.53 | 1.4 | enough cells to score | inactive |
| Cacnb1 (calcium channel, voltage-dependent, beta 1 subunit) | 0.84 | 1.7 | 1.94 | enough cells to score | inactive |
| Mrpl32 (mitochondrial ribosomal protein L32) | -0.86 | 1.33 | 1.24 | enough cells to score | inactive |
| Nap1l5 (nucleosome assembly protein 1-like 5) | 0.1 | 1.32 | 1.6 | enough cells to score | inactive |
| Barx1 (BarH-like homeobox 1) | -1.03 | 1.44 | 1.48 | enough cells to score | inactive |
| Tor1aip1 (torsin A interacting protein 1) | 1.87 | 1.97 | 1.85 | enough cells to score | inactive |
| Nudt18 (nudix hydrolase 18) | -0.82 | 1.4 | 1.77 | enough cells to score | inactive |
| Cyp2d26 (cytochrome P450, family 2, subfamily d, polypeptide 26) | -1.23 | 1.38 | 1.59 | enough cells to score | inactive |
| Sart3 (squamous cell carcinoma antigen recognized by T cells 3) | -1.32 | 1.24 | 1.03 | enough cells to score | inactive |
| Socs7 (suppressor of cytokine signaling 7) | -0.48 | 1.46 | 1.5 | enough cells to score | inactive |
| Cib2 (calcium and integrin binding family member 2) | -0.82 | 1.3 | 1.32 | enough cells to score | inactive |
| Shq1 (SHQ1 homolog (S. cerevisiae)) | 4.94 | 1.8 | 2.37 | enough cells to score | active |
| Dsg2 (desmoglein 2) | – | 1.52 | 1.26 | fewer than 50 cells per well; well left out of scoring | inactive |
| Cd276 (CD276 antigen) | – | 1.13 | 0.944 | fewer than 50 cells per well; well left out of scoring | inactive |
| Psen2 (presenilin 2) | -0.69 | 1.49 | 1.24 | enough cells to score | inactive |
| Ubl4a (ubiquitin-like 4A) | 0.51 | 1.52 | 1.63 | enough cells to score | inactive |
| Mtmr14 (myotubularin related protein 14) | 1.87 | 1.67 | 1.83 | enough cells to score | inactive |
| Terb1 (telomere repeat binding bouquet formation protein 1) | 0.86 | 1.42 | 1.35 | enough cells to score | inactive |
| Prl2c4 (prolactin family 2, subfamily c, member 4) | -0.27 | 1.72 | 1.57 | enough cells to score | inactive |
| Fchsd2 (FCH and double SH3 domains 2) | 0.03 | 1.45 | 1.6 | enough cells to score | inactive |
| Klrc1 (killer cell lectin-like receptor subfamily C, member 1) | 1.7 | 1.83 | 1.63 | enough cells to score | inactive |
| Chl1 (cell adhesion molecule L1-like) | 0.49 | 1.59 | 1.95 | enough cells to score | inactive |
| Opn1sw | 1.59 | 1.71 | 1.84 | enough cells to score | inactive |
| Nek8 (NIMA (never in mitosis gene a)-related expressed kinase 8) | – | 1.81 | 1.26 | fewer than 50 cells per well; well left out of scoring | inactive |
| Lilrb4b | 1.03 | 1.51 | 1.57 | enough cells to score | inactive |
| Zik1 (zinc finger protein interacting with K protein 1) | 0.27 | 1.42 | 1.31 | enough cells to score | inactive |
| Gm9975 (predicted gene 9975) | 0.79 | 1.73 | 1.89 | enough cells to score | inactive |
| Zbtb20 (zinc finger and BTB domain containing 20) | – | 1.31 | 1.21 | fewer than 50 cells per well; well left out of scoring | inactive |
| Ivl (involucrin) | 0.98 | 1.63 | 1.62 | enough cells to score | inactive |
| Mybl1 (Myb proto-oncogene like 1) | 0.51 | 1.48 | 1.43 | enough cells to score | inactive |
| Dnajc14 (DnaJ heat shock protein family (Hsp40) member C14) | -0.53 | 1.52 | 1.55 | enough cells to score | inactive |
| Pcdhga10 (protocadherin gamma subfamily A, 10) | -0.2 | 1.41 | 1.23 | enough cells to score | inactive |
| Egr1 (early growth response 1) | -1.26 | 1.27 | 1.23 | enough cells to score | inactive |
| Or5e1 (olfactory receptor family 5 subfamily E member 1) | 0.59 | 1.52 | 1.35 | enough cells to score | inactive |
| Supt16 (SPT16, facilitates chromatin remodeling subunit) | 0.68 | 1.5 | 1.31 | enough cells to score | inactive |
| Gpam (glycerol-3-phosphate acyltransferase, mitochondrial) | -0.24 | 1.39 | 1.72 | enough cells to score | inactive |
| Or8h7 (olfactory receptor family 8 subfamily H member 7) | 0.69 | 1.76 | 1.68 | enough cells to score | inactive |
| Uqcrq (ubiquinol-cytochrome c reductase, complex III subunit VII) | -0.42 | 1.49 | 1.39 | enough cells to score | inactive |
| Kbtbd2 (kelch repeat and BTB (POZ) domain containing 2) | -0.25 | 1.49 | 1.42 | enough cells to score | inactive |
| Cd80 (CD80 antigen) | -0.49 | 1.33 | 1.38 | enough cells to score | inactive |
| Or51q1c (olfactory receptor family 51 subfamily Q member 1C) | -0.66 | 1.37 | 1.18 | enough cells to score | inactive |
| Cfap184 (cilia and flagella associated protein 184) | 1.03 | 1.37 | 1.42 | enough cells to score | inactive |
| Sirt6 (sirtuin 6) | 1.3 | 1.66 | 1.33 | enough cells to score | inactive |
| Muc19 (mucin 19) | -2.4 | 1.38 | 1.24 | enough cells to score | active |
